The results in this text go back to PMC9290826 (Chemmedchem, 2021).

SMILES strings stand for the structures. In brackets after ≈: the same amount, converted by molar mass.

The test system of this test is Escherichia coli (DSM1116, ATCC 9637). The test can be described thus: Antibacterial screening, broth dilution MIC. Type of test: cell-based. To be noted: ATCC9637|DSM1116, 20 h, read-out: Mean MIC ± standard error. The procedure, abridged: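 Test compound serially diluted from 64 μg/ml, inoculum 2–8×10^5 CFU/ml, duplicate wells. Incubated 20 h at 37 °C, then absorbance read at 600 nm. MIC derived by curve fitting over three independent experiments. Positive controls: linezolid for S. aureus, ciprofloxacin for the others.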

As to `O=C(O)c1cn(C2CC2)c2cc(N3CCNCC3)c(F)cc2c1=O` [ciprofloxacin, reference compound], the MIC worked out at 0.3 ± 0.1 µM (≈ 0.0994 µg/mL).
